Results as given in patent publication US20230043813A1, “METHODS FOR TARGETED CELL DEPLETION” (The Regents of the University of California, priority 2019, published 2023).
At least one structure is not confirmed: it was looked up by name or label, or the drawing left a doubt.

Experiments:
[1] = test system: Cas9 expressing U-251, LN-229, T98G, and LN-18 glioblastoma cells; assay: cell cycle analysis (PI staining, flow cytometry); format: cell-based, human; settings: one to five days; TMZ 50 μM or 100 μM
Description: The effects of genome shredding on cell cycle progression were then assessed. Cells were treated with TMZ or sgCIDEs for one to five days and then stained with PI after fixation for analysis by flow cytometry. […] Increases of the Sub-G1 population was more prominent in TP53-mutant U-251 cells compared LN-229 with wild-type TP53, consistent with previous observations that TP53 status affects resolution of the G2/M arrest.

[2] = test system: Cas9 expressing U-251, LN-229, T98G, and LN-18 cells; assay: colony formation assay (crystal violet); format: cell-based, human; settings: two weeks
Description: Because recurrent tumors develop from cells that escape treatment, either by avoiding exposure, tolerating the effects, or developing resistance, colony formation assays were performed to evaluate the robustness of CRISPR-Cas genome shredding in eliminating target cells.
TMZ-resistant LN-229 cell lines were isolated to determine which types of treatments could overcome such resistance. Cas9 expressing U-251, LN-229, T98G, and LN-18 cells were stably transduced with lentiviral vectors expressing sgNT-1/2 or sgCIDE-1/2/3/6/8/10 (Table 2), and seeded at 100, 1,000, and 10,000 cells per 6-well plate. Control cells were treated with DMSO or TMZ (50 μM).

Cn1nnc2c(C(N)=O)ncn2c1=O [TMZ, temozolomide, reference compound]
cell cycle profile [1]: G2/M arrest with initial increase of the G2 peak, loss of G1, and slow increase of the Sub-G1 (apoptotic) population starting at day two | effect on colony numbers ([2]; T98G and LN-18, TMZ 50 μM): unaffected | reduction of colony numbers compared to DMSO ([2]; U-251 and LN-229, TMZ 50 μM): about two log-scales
